Measured values reported in PMC4912626.
Results are given in words; binding and its absence hold for the method and conditions named. For some of these results: In cells and extracts the contact can be indirect. Some binding calls cover weakened binding; strength is not graded here. For some of these results: Tags and fused reporters may be left off the sequences shown. One block for each molecule: values may come before it.

By UniProt entry, the sequences of proteins in these tests, tags left out.
UniProt P01106: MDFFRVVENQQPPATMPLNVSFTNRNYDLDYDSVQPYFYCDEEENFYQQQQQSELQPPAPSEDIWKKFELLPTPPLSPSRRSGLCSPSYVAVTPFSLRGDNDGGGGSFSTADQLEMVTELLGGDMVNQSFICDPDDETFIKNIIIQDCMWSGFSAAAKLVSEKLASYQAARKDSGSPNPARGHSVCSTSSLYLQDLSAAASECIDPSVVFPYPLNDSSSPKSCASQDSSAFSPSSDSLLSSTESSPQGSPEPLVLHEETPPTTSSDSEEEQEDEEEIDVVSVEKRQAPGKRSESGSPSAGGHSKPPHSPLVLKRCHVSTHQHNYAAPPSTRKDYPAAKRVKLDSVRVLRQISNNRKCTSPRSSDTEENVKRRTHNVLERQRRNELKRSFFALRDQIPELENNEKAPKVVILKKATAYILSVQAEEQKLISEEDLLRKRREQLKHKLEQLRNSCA
UniProt P01108: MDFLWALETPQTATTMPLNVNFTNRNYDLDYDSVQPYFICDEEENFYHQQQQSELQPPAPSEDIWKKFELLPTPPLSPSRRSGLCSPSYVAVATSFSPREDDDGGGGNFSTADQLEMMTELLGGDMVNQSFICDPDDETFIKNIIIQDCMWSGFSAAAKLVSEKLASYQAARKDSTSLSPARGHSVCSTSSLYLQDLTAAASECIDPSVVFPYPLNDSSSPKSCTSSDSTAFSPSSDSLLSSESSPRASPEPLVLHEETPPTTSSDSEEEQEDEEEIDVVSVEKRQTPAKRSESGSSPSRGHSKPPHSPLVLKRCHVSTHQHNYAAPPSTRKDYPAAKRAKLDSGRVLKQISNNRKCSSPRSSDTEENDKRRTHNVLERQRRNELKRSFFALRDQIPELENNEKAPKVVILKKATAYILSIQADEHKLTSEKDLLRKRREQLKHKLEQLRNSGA
UniProt Q00417: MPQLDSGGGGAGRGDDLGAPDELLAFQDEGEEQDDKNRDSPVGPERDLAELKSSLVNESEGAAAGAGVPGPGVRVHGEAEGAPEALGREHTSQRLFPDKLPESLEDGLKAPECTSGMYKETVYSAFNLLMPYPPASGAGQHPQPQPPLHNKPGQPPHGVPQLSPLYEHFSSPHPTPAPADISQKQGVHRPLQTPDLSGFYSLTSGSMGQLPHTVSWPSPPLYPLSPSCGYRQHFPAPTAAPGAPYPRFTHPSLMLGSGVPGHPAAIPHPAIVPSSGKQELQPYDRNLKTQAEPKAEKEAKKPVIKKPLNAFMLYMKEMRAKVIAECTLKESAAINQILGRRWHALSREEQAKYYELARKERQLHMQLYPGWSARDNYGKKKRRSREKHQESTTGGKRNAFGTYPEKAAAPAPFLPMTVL
UniProt Q6ZN18: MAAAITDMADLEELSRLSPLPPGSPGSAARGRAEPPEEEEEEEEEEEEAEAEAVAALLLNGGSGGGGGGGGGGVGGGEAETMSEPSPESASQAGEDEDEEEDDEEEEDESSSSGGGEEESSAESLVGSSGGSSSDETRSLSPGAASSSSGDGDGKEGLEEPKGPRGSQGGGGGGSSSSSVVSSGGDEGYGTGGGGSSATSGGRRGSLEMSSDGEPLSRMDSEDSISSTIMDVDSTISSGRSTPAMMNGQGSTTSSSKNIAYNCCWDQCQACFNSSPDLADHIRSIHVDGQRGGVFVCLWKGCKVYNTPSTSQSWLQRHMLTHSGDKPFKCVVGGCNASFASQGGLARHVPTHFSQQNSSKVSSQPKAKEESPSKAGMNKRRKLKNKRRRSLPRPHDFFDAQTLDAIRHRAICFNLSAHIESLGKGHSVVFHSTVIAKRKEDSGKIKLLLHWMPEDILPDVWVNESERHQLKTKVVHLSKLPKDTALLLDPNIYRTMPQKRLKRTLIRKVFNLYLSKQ
UniProt Q921E6: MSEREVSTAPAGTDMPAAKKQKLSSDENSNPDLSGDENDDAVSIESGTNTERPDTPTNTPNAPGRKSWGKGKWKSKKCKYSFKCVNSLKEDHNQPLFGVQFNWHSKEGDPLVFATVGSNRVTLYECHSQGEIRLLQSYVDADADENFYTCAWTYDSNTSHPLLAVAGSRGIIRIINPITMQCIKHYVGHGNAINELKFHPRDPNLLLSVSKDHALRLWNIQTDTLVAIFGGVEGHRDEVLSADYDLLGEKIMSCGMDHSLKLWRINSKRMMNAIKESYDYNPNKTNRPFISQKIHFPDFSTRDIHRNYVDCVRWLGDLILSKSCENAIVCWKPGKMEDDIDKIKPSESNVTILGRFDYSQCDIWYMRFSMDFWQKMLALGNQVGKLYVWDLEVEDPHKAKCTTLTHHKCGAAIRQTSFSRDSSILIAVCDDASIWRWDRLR
UniProt Q61188: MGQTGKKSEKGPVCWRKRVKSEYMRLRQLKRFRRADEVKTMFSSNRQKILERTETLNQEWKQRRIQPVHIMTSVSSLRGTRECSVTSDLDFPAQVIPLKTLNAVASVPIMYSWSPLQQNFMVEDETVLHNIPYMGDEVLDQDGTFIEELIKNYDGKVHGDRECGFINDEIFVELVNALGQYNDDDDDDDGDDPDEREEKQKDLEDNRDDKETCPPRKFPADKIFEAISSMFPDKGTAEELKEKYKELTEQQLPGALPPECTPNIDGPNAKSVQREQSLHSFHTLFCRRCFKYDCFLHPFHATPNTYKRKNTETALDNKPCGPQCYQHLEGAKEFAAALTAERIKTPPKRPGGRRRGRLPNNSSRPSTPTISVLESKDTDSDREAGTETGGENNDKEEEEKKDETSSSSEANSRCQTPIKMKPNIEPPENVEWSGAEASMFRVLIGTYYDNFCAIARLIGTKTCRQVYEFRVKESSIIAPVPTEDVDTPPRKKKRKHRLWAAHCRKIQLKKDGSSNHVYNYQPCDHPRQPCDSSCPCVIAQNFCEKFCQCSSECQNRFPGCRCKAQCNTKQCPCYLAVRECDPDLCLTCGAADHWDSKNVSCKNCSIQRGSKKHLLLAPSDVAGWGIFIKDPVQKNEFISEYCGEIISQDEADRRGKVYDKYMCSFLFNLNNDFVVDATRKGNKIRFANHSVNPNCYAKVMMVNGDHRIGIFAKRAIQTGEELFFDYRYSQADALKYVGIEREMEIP
UniProt Q9CQJ4: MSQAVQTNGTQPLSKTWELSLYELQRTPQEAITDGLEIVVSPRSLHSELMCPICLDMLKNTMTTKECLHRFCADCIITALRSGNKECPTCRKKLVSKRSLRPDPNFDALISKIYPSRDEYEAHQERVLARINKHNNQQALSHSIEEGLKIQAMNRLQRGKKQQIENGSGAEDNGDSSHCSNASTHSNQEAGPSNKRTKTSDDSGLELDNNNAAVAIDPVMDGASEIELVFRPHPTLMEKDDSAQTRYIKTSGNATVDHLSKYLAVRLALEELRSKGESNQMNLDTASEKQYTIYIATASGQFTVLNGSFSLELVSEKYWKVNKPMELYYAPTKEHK
UniProt Q80U70: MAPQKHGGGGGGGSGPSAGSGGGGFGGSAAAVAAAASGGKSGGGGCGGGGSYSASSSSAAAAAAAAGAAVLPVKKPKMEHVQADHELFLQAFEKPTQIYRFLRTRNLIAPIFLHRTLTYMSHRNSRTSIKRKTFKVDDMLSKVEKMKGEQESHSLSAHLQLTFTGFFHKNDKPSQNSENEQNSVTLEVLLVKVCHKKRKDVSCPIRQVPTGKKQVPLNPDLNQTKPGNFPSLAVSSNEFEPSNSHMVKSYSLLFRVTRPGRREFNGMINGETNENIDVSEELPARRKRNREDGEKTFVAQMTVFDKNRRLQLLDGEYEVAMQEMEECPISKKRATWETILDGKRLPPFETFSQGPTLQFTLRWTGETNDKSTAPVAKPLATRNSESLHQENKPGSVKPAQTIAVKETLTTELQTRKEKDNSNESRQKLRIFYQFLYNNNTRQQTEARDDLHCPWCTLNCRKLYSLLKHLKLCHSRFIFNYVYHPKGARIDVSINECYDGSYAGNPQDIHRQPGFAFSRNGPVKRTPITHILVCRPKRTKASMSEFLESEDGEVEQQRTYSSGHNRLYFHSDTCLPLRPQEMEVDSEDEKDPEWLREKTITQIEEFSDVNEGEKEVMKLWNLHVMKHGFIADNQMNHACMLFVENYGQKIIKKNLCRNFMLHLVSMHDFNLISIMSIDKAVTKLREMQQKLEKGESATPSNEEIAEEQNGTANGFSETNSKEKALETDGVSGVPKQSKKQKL
UniProt Q02248: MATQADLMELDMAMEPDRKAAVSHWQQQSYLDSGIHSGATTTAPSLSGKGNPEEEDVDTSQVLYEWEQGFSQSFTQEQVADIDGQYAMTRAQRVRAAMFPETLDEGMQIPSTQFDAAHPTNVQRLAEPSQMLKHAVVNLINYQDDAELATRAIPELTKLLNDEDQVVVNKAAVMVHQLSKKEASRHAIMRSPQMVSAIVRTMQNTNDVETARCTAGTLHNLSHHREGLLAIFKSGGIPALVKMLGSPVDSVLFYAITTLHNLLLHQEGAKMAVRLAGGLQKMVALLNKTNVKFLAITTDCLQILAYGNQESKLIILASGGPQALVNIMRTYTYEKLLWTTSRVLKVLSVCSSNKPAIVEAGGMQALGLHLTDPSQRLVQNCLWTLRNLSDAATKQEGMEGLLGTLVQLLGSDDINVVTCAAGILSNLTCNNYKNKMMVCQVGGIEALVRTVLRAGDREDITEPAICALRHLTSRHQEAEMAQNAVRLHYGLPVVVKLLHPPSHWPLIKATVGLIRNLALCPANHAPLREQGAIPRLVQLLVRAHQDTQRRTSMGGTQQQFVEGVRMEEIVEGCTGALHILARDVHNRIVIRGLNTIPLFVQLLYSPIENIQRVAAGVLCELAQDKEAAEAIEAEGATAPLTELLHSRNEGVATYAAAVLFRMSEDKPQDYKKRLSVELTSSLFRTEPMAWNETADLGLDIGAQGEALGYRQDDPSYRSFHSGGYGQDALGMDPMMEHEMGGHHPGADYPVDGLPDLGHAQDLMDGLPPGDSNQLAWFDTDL

Assays:
YFP-MYC = YFP-MYC (UniProt P01106); test: FRET or BRET; acceptor photobleaching FRET (apFRET) in fixed NIH3T3 cells co-expressing CFP- and YFP-tagged proteins, MAX co-expressed (MYC:MAX 4:1)
[1] = molecular target: endogenous Myc (mouse (endogenous in ESCs)) (UniProt P01108); test: co-IP; nuclear extracts of ESCs in F-buffer (100 mM NaCl, 1% Triton X-100), in the presence or absence of DNaseI; IP of endogenous Myc, immunoblot
[2] = molecular target: T1, endogenous Mycn (mouse (endogenous in ESCs)) (UniProt P03966); test: proximity ligation; in situ PLA (Olink) on ESCs fixed in 4% PFA, primary antibodies from different species; LIF- and Myc-dependent ESCs; shRNA knock-downs as specificity controls
T1 sequence: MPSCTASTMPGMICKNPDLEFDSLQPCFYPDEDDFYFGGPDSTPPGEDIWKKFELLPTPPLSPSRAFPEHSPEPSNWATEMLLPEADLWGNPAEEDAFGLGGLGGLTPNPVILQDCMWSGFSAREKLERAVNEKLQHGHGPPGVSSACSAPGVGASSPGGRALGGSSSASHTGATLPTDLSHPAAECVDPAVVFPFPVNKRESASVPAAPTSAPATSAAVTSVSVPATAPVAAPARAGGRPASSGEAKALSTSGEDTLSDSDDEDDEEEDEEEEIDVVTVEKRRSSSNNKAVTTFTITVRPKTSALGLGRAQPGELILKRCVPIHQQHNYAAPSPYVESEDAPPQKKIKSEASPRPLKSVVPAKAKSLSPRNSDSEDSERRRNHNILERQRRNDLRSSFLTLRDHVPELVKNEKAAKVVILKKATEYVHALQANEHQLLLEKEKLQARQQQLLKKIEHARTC

[3] = molecular target: endogenous Myc (mouse (endogenous in ESCs)) (UniProt P01108); test: as above
His-Myc wt = His-Myc wt (UniProt P01106); test: pull-down; 1 μg His-MYC bound to magnetic beads with anti-Histidine antibody, 1 μg GST fusion protein, GST-binding buffer (40 mM HEPES pH 7.3, 200 mM KCl, 0.1% NP-40, 0.2% Tween-20), 2 h at 4 °C, immunoblot; both purified
[4] = molecular target: Tcf1 (mouse (endogenous in ESCs)) (UniProt Q00417); test: proximity ligation; in situ PLA (Olink) on ESCs fixed in 4% PFA, primary antibodies from different species; LIF- and Myc-dependent ESCs; shRNA knock-downs as specificity controls
[5] = molecular target: T2, Tcf3 (mouse (endogenous in ESCs)) (UniProt Q9Z1J1); test: as above
T2 sequence: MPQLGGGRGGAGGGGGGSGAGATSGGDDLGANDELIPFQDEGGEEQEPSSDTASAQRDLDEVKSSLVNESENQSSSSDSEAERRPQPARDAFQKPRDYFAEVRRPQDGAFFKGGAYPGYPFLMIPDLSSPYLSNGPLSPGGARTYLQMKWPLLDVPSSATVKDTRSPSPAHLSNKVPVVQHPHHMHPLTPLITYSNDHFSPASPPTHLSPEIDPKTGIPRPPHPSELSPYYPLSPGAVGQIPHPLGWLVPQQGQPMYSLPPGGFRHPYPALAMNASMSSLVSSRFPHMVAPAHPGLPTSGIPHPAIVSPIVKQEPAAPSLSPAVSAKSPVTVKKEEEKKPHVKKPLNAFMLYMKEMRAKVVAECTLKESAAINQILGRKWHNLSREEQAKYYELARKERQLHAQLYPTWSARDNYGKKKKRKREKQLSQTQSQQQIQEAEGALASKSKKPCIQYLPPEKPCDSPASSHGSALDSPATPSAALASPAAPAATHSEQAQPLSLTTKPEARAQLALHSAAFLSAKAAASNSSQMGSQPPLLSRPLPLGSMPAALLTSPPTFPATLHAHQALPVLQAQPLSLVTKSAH

binding (YFP-MYC): binds
Molecule: AEBP2-CFP (from UniProt Q6ZN18 1-517)

binding [1]: binds
binding [2]: binds
binding [3]: binds
Molecule: Eed (from UniProt Q921E6 1-441)

binding [1]: binds
binding [2]: binds
binding [3]: binds
Molecule: Ezh2 (from UniProt Q61188 1-746)

binding [1]: binds
B1: Aebp2 (protein, UniProt Q9Z248 1-504)
chain: MAAALADMADLEELSRLSPLSPGSPGPAARGRAEPPEEEEEEDDEEAEAEAVAALLLNGGAGGGAGGGEAETMSEPSPESASQAGGDEDEDEEDDEDEGSSSGGAEEESSAESLVGSSSGGCSGDETRSLSPGAASSSSGDGDGKEGLEEPKGPRGGPGGPGSSGGGSSSSSVVSSGGDEGYGTGGGGSSATSGGRRGSLEMSSDGEPLSRMDSEDSISSTLMDIDSTISSGRSTPAMMNGQGSTTASSKHIAYNCCWDQCQACFNSSPDLADHIRSIHVDGQRGGVFVCLWKGCKVYNTPSTSQSWLQRHMLTHSGDKPFKCVVGGCNASFASQGGLARHVPTHFSQQNSSKVSSQPKAKEESPSKAGMNKRRKLKNKRRRSLPRPHDFFDAQTLDAIRHRAICFNLSAHIESLGKGHSVVFHSTVIAKRKEESGKIKLLLHWMPEDILPDVWVNESERHQLKTKVVHLSKLPKDTALLLDPNIYRTMPQKRLKRFDILNFPR

The remaining lines, values behind:

Molecule: GST-AEBP2 (from UniProt Q6ZN18 1-517)
binding (His-Myc wt): binds

Molecule: Ring1B (from UniProt Q9CQJ4 1-336)
binding [1]: no binding

Molecule: Suz12 (from UniProt Q80U70 1-741)
binding [1]: binds

Molecule: β-catenin (from UniProt Q02248 1-781)
binding [4]: binds
binding [5]: binds
